Experimental data from article PMC7819943, “Rice protein-binding microarrays: a tool to detect cis-acting elements near promoter regions in rice”.
This is one part of the list.

These sequences were tested against T1, OsSMF1 (Oryza sativa, UniProt Q6ZLB0 1-436) (assay: protein-binding microarray (RPBM); PBS, 2% BSA, 51.3 ng/ul salmon testes DNA, 50 uM zinc acetate, 200 nM TF, 25 C, 1 h; high values mean tight binding). Settings: protein: recombinant; tags: N-terminal polyhistidine and DsRed monomer fusion (pET32a); chain copies: 2; label: CyDye5-dUTP incorporated in the synthesized complementary strand; 3' TTTTT single-stranded linker to array surface; dsDNA, one strand shown.
T1 sequence: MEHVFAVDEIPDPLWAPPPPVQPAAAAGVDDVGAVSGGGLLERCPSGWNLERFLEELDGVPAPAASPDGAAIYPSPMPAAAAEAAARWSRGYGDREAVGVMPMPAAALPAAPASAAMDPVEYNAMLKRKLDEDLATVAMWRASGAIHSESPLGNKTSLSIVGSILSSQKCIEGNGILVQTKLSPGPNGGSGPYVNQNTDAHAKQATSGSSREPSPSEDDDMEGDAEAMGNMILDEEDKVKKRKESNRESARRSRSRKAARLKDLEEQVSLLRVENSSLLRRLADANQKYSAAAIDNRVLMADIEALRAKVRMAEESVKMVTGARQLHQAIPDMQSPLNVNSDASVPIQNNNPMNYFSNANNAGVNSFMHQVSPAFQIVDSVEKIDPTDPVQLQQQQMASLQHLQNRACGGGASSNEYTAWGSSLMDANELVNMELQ
Method in brief: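 Polyhistidine-tagged DsRed fusions of transcription factors, joined at the N-terminus, were expressed in E. coli BL21-CodonPlus and isolated on Ni–NTA. They were incubated at 200 nM for 1 h at 25 °C on a custom Agilent array, double-stranded and BSA-blocked, in PBS with 2% BSA, salmon testes DNA and 50 µM zinc acetate. The binding signal is per-feature fluorescence intensity (arbitrary units) read on an Axon 4000B scanner after washing.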

Sequence | binding signal
GCTGCACCGCCGCCATCGTCGTGGTTGGGACTTGGGAGAGCGGAGTCACCTAGTGCAG | 5190 fluorescence intensity (a.u.)
TGCATGCTGTTTAATTTTATCATGTGTGCAAATGGTTATACGGAGTCACCTAGTGCAG | 3580 fluorescence intensity (a.u.)
ACTTTCAGTGGGCTCGCGTTGAATGTTGGTGATGGTCAGACGGAGTCACCTAGTGCAG | 4360 fluorescence intensity (a.u.)
TCCGCCATCTCCTCCCCGACCATCGCCACCTCCTTCTCCTCGGAGTCACCTAGTGCAG | 3300 fluorescence intensity (a.u.)
AAACGATAAAGCAAGCAAGTGACGCAGATGATTACAAGACCGGAGTCACCTAGTGCAG | 4520 fluorescence intensity (a.u.)
AAATTGTGCACGTGTAATACACGTCGTGACCTATATTAAACGGAGTCACCTAGTGCAG | 5690 fluorescence intensity (a.u.)
TGTGCTGTGTGGTGTACTGGTGTGTGGGCTTAATAATTGTCGGAGTCACCTAGTGCAG | 4340 fluorescence intensity (a.u.)
AAACATTAGATTATTCTCACAAGAGTTATTCGATGATAATCGGAGTCACCTAGTGCAG | 27800 fluorescence intensity (a.u.)
CCCTAGTCTCCTCCCTTGTACATAGGCAAATCCATACGCACGGAGTCACCTAGTGCAG | 3640 fluorescence intensity (a.u.)
TCAATAATGTGTGCGTGACCTGGGCAAGTGGCGGTAGCAACGGAGTCACCTAGTGCAG | 3540 fluorescence intensity (a.u.)
GACACAAACAAAATCGAGAAGATGGCATACCTACCATACACGGAGTCACCTAGTGCAG | 22800 fluorescence intensity (a.u.)
TGGACACTTTGAGCTAAGCTCTCATCTTTCGTCTAAATCTCGGAGTCACCTAGTGCAG | 3150 fluorescence intensity (a.u.)
TGGGTGCCACGTCCGCGACGCGACCCGCTGGCGCTGTGGCCGGAGTCACCTAGTGCAG | 11900 fluorescence intensity (a.u.)
TCAAACAACTTCTTTTCATTGTTGTGTATGACACTATACTCGGAGTCACCTAGTGCAG | 3140 fluorescence intensity (a.u.)
ATCAAACACACCAAATAAGCAAGTGGATGGTGGTGGTGGTCGGAGTCACCTAGTGCAG | 3980 fluorescence intensity (a.u.)
CTATCCGACAACGACGACGCCGGTGAAGGGGAACTCGTCCCGGAGTCACCTAGTGCAG | 3180 fluorescence intensity (a.u.)
GCGGTTCTGCCAGCATTTGATTGGTCCACGTGGTGCCATACGGAGTCACCTAGTGCAG | 10400 fluorescence intensity (a.u.)
TTGTCTAAGGACAAAATTATCTGCCACGCTCCACTAAAATCGGAGTCACCTAGTGCAG | 3240 fluorescence intensity (a.u.)
GAGCACTAGCAGAAGTGGCAGAGAGGAAGAGTAACCTAGCCGGAGTCACCTAGTGCAG | 22900 fluorescence intensity (a.u.)
ACCTCCCACACCTGTGTCGATCCAGGCAGGCCGAGCGCGACGGAGTCACCTAGTGCAG | 43400 fluorescence intensity (a.u.)
CATTCTTAATAGATAATTTGTTTTATATCCCTCACCGTACCGGAGTCACCTAGTGCAG | 3320 fluorescence intensity (a.u.)

Sequence | binding signal
TAAAGCTTTTATGAATGAATAGCCTCGCTGGCAAGTGGGCCGGAGTCACCTAGTGCAG | 3560 fluorescence intensity (a.u.)
CGCGGATCTTCCTCCACAAGCCTCGTCGCGCTTGAGCTCCCGGAGTCACCTAGTGCAG | 28200 fluorescence intensity (a.u.)
GAGATGCCATCGGAATATTCTCCGTTTCCATCTCGTTCTGCGGAGTCACCTAGTGCAG | 3240 fluorescence intensity (a.u.)
AGGATTTCATGTGTTTTGGTTAACATATTCATGTGTGTCTCGGAGTCACCTAGTGCAG | 3500 fluorescence intensity (a.u.)
AGCTCAGCTGTCACGGTGTCACCTGTCAGCGCCCACAACTCGGAGTCACCTAGTGCAG | 6140 fluorescence intensity (a.u.)
GAGGCCGGGGTCGGGGCGAGCGAGGCGAGAGGGGAGGAGGCGGAGTCACCTAGTGCAG | 4480 fluorescence intensity (a.u.)
ACACTGTCTCCCTGACTGATCTGGCCGTTGGCACATCGTTCGGAGTCACCTAGTGCAG | 3260 fluorescence intensity (a.u.)
CATGCATGATAAGATGGCTGTCATCAGTAGCACCTATGAGCGGAGTCACCTAGTGCAG | 3660 fluorescence intensity (a.u.)
GGCAACGCACCACGCTGCACGCGTCCGTGGTCGCCGCGAACGGAGTCACCTAGTGCAG | 3150 fluorescence intensity (a.u.)
CTGACCATGGTCAGAACGTGGCACCGAAGCTCACCAAGTTCGGAGTCACCTAGTGCAG | 3280 fluorescence intensity (a.u.)
TCTGCTACAGTATAACAGTGCCCTTTCCCCACATCAGCCGCGGAGTCACCTAGTGCAG | 4600 fluorescence intensity (a.u.)
CCACTGTCCACATGCCCACATCATCTTCAACTGGGCCTACCGGAGTCACCTAGTGCAG | 4200 fluorescence intensity (a.u.)
AGGTATGCACCTACGTACGTGGGTACGTATGCTTCCCCTCCGGAGTCACCTAGTGCAG | 4130 fluorescence intensity (a.u.)
GTCAAGGGGTCTCAAGTCTCAACTCCAAAAGCCAATGGAACGGAGTCACCTAGTGCAG | 32400 fluorescence intensity (a.u.)
GGGAAGGGACGCGTGGCGGCGTCCGTTGGCGGGACCAGATCGGAGTCACCTAGTGCAG | 4870 fluorescence intensity (a.u.)
ACGCGGCCACCGTGGACGCCGCCGCACGTACGTGGGCGTGCGGAGTCACCTAGTGCAG | 5080 fluorescence intensity (a.u.)
CGCCGCCTGCCGGCCACGCCTCCAGCCGCTGCTGCCGCTGCGGAGTCACCTAGTGCAG | 3590 fluorescence intensity (a.u.)
CAGGATGAATGAAGCTCCTGTTGTTCGAGACGAGTGGCCTCGGAGTCACCTAGTGCAG | 4290 fluorescence intensity (a.u.)
ATTACATACTAATTACATATGTAAGTGAGGTGTAACTACTCGGAGTCACCTAGTGCAG | 4160 fluorescence intensity (a.u.)
TTTCAACGAGAAGTCAAGATTCAAACTATTTCCTGTTCTCCGGAGTCACCTAGTGCAG | 3620 fluorescence intensity (a.u.)
ATCTCCATTGCCATGCCATGTCATGCCAAATGCCCGAGTGCGGAGTCACCTAGTGCAG | 10200 fluorescence intensity (a.u.)

Exported in markdown: entries from further up.

| Sequence | binding signal |
| --- | --- |
| AGGATTTCATGTGTTTTGGTTAACATATTCATGTGTGTCTCGGAGTCACCTAGTGCAG | 3500 fluorescence intensity (a.u.) |
| ACACTGTCTCCCTGACTGATCTGGCCGTTGGCACATCGTTCGGAGTCACCTAGTGCAG | 3260 fluorescence intensity (a.u.) |
| CATGCATGATAAGATGGCTGTCATCAGTAGCACCTATGAGCGGAGTCACCTAGTGCAG | 3660 fluorescence intensity (a.u.) |
